Key:
[1] = general procedure: Fmoc solid-phase peptide synthesis; Fmoc-Thr(tBu)-HMP Am Resin; DIC/HOBt; conditions: whole synthesis, scale 2 mmole
[2] = general procedure: Fmoc solid-phase peptide synthesis; Fmoc-Rink-Amide resin (0.5 mmol/g); Fmoc-Thr(tBu)-HMP Am Resin (0.45 mmol/g) for EU-A1024; DIC/HOBt; conditions: whole synthesis, scale of the general procedure 0.3 mmol, 2 mmole for EU-A1024; for final LC-MS purity: analytical hplc/mass spectrometry
[3] = general procedure: Fmoc solid-phase peptide synthesis; Fmoc-Rink-Amide resin; DIC/HOBt; conditions: whole synthesis, scale 0.3 mmol

Row | Substance | final LC-MS purity [2] [%] | other results
1 | Boc-His(Trt)-Aib-Gln(Trt)-Gly-Thr(tBu)-Phe-Thr(tBu)-Ser(tBu)-Asp(OtBu)-Tyr(tBu)-Ser(tBu)-Lys(Boc)-Tyr(tBu)-Leu-Asp(OtBu)-Glu(O-Allyl)-Gln(Trt)-Ala-Ala-Lys(Alloc)-Glu(O-tBu)-Phe-Ile-Lys(Dde)-Trp(Boc)-Leu-Leu- Gln(Trt)-Thr(tBu)-HMP amide resin |  | crude mass [1]: 5 to 8 g
2 | 2′,6′-dimethyl-L-tyrosyl-L-1,2,3,4-tetrahydroisoquinoline-3-carbonyl-L-phenylalanyl-Nε-(1′-methyl β-D-glucuronyl)-L-lysyl-amide | 95.5 | 
3 | 2′,6′-dimethyl-L-tyrosyl-L-1,2,3,4-tetrahydroisoquinoline-3-carbonyl-L-phenylalanyl-L-phenylalanyl-Nε-(1′-methyl β-D-glucuronyl)-L-lysyl-amide | 98.99 | 
4 | 2′,6′-dimethyl-L-tyrosyl-prolyl-2′,4′,6′-trimethyl-L-phenylalanyl-Nε-(1′-octyl β-D-glucuronyl)-L-lysine amide | >96 | isolated yield ([2]; overall): 18%; crude mass [3]: 290 mg; isolated mass [3]: 100 mg
5 | 2′,6′-dimethyl-L-tyrosyl-Nε-(1′-dodecyl β-D-glucuronyl)-D-lysyl-2′,4′,6′-trimethyl-L-phenylalanyl-L-phenylalanine-amide | 95.8 | 
6 | 2′,6′-dimethyl-L-tyrosyl-prolyl-2′,4′,6′-trimethyl-L-phenylalanyl-L-phenylalanyl-Nε-(1′-dodecyl β-D-glucuronyl)-L-lysine amide | 96.1 | 
